These are yes or no findings as the source states them, for the method shown. Binding can be weak; no strength is given.

Data on one molecule can be found in paper PMC3830196, “Calmodulin-like protein AtCML3 mediates dimerization of peroxisomal processing protease AtDEG15 and contributes to normal peroxisome metabolism” (Plant Molecular Biology, 2013).

In the experiment the target is AtDEG15 missing the C-terminal domain (yeast fusion) (Arabidopsis thaliana). The experiment in a line: yeast three-hybrid; full length AtDEG15 in pBridge, AtDEG15 constructs in pGAD424, AtCML3 from the second multiple cloning site of pBridge expressed (0 mM Met); lacZ reporter, Miller units; S. cerevisiae AH109.

B1: AtCML3 expressed as the third protein in the yeast three-hybrid (protein, UniProt Q9SRR7 1-153)
chain: MDQAELARIFQMFDRNGDGKITKQELNDSLENLGIYIPDKDLVQMIEKIDLNGDGYVDIEEFGGLYQTIMEERDEEEDMREAFNVFDQNRDGFITVEELRSVLASLGLKQGRTLEDCKRMISKVDVDGDGMVNFKEFKQMMKGGGFAALGSNL
As to B1, the binding result is reported as “binds”.
